For the assay, the target named is Ca2+ insensitive mutant DREAM, Flag-tagged (TgDREAM-Flag) (UniProt Q9Y2W7). Kind of assay: co-IP; differentially tagged proteins (TgDREAM-Flag and Myc-tagged DREAM/KChIP 1 to 4) after overexpression in HEK293 cells; which tag was precipitated is not told.

By UniProt entry, the sequences of proteins in these tests, tags left out. Where a name states a change or a piece, a line headed by the entry shows the natural chain unless it says otherwise.
UniProt Q9Y2W7: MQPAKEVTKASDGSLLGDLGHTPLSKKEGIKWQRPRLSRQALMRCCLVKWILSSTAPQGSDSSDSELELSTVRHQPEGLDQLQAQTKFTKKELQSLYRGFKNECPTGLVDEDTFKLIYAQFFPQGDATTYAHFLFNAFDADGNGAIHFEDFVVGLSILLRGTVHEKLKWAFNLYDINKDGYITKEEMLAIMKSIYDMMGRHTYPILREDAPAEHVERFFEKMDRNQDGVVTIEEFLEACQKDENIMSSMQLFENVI

These are yes or no findings as the source states them, for the method shown. In cells and extracts the contact can be indirect. Binding calls can cover weak binding; strength is not graded here. Where a sequence is shown, tags or fusion partners need not be part of it.

From PMC2822766 come the findings set out here.

B1: KChIP-1, Myc-tagged (protein, UniProt Q9NZI2 1-227)
chain: MGAVMGTFSSLQTKQRRPSKDIAWWYYQYQRDKIEDELEMTMVCHRPEGLEQLEAQTNFTKRELQVLYRGFKNECPSGVVNEDTFKQIYAQFFPHGDASTYAHYLFNAFDTTQTGSVKFEDFVTALSILLRGTVHEKLRWTFNLYDINKDGYINKEEMMDIVKAIYDMMGKYTYPVLKEDTPRQHVDVFFQKMDKNKDGIVTLDEFLESCQEDDNIMRSLQLFQNVM
Take B1: the binding result is recorded as “binds”.

B2: KChIP-4, Myc-tagged (protein, UniProt Q6PIL6 1-250)
chain: MNVRRVESISAQLEEASSTGGFLYAQNSTKRSIKERLMKLLPCSAAKTSSPAIQNSVEDELEMATVRHRPEALELLEAQSKFTKKELQILYRGFKNECPSGVVNEETFKEIYSQFFPQGDSTTYAHFLFNAFDTDHNGAVSFEDFIKGLSILLRGTVQEKLNWAFNLYDINKDGYITKEEMLDIMKAIYDMMGKCTYPVLKEDAPRQHVETFFQKMDKNKDGVVTIDEFIESCQKDENIMRSMQLFENVI
On to B2, for which the binding result is “binds”.

B3: KChIP-2, Myc-tagged (protein, UniProt Q9NS61 1-270)
chain: MRGQGRKESLSDSRDLDGSYDQLTGHPPGPTKKALKQRFLKLLPCCGPQALPSVSETLAAPASLRPHRPRLLDPDSVDDEFELSTVCHRPEGLEQLQEQTKFTRKELQVLYRGFKNECPSGIVNEENFKQIYSQFFPQGDSSTYATFLFNAFDTNHDGSVSFEDFVAGLSVILRGTVDDRLNWAFNLYDLNKDGCITKEEMLDIMKSIYDMMGKYTYPALREEAPREHVESFFQKMDRNKDGVVTIEEFIESCQKDENIMRSMQLFDNVI
For B3, the binding entry is given as “binds”.
